Experimental data taken from PubChem BioAssay AID493014 (National Center for Advancing Translational Sciences (NCATS), 2011).
The other results are listed elsewhere or left out. Further columns of the screen follow, without active or inactive calls. The list favours compounds with an active or inconclusive main result. The note in brackets gives the kind of curve behind each potency; many fits are weak.

Test: qHTS Assay to Find Inhibitors of Chronic Active B-Cell Receptor Signaling
Conditions: ABC-DLBCL IkBa-CBG/CBR reporter, luminescence ratio (green luciferase fused to IkBa over red control in TMD8 lymphoma cells), 4 h
Procedure, shortened: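 Concentration-response series (up to 46 uM) were applied to TMD8 dual-reporter cells for 4 h at 37C with doxycycline. Green/red ratio, after filter-overlap correction, defined %Activity; red signal alone was normalised to basal cells and zero luminescence.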

[1] = measured here: CBR red luminescence, cell number
[2] = measured here: IkBa-CBG green luminescence

CC(=O)N1CCC(O)(c2cccc(C(F)(F)F)c2)CC1
AC50 [1]: 12.6 µM [rising, partial curve, poor fit]

Cc1cc(OCc2cccc(Cl)c2)c(C)cc1CN1CCOCC1
AC50 [1]: 11.2 µM [rising, partial curve, poor fit]

O=[N+]([O-])c1ccccc1S(=O)(=O)c1ccccc1
AC50 [1]: 3.98 µM [rising, single point]

COc1cc(OC)cc(-c2nc3ccccc3s2)c1
AC50 [1]: 35.5 µM [falling, single point]

Cc1oc(-c2cccs2)nc1CS(=O)CC(=O)NCCCOC(C)C (configuration not stated)
AC50 [1]: 5.62 µM [falling, single point]

COc1ccccc1OCC(=O)N/N=C1\CCc2ccccc21
AC50 [1]: 0.82 µM [rising, full curve, poor fit]

OC(COCc1ccc(Cl)cc1)CN1CCN(c2ccccn2)CC1 (configuration not stated)
AC50 [1]: 9.2 µM [rising, partial curve, poor fit]

CCOC(=O)c1cccc(C2=CC(=O)C[C@H](c3ccc(Cl)cc3)C2)c1
AC50 [1]: 32.6 µM [falling, single point]

COc1ccc(-c2[nH]ncc2/C=C(\C#N)C(=O)NC2CC2)cc1
AC50 [1]: 5.17 µM [rising, full curve, poor fit] | AC50 [2]: 23.1 µM [falling, partial curve, poor fit]

C=C(C)c1nc2cc(OC)c(OC)cc2c(=O)o1
AC50 [1]: 29.1 µM [rising, partial curve, poor fit]

COCC(C)NC(=O)c1cc(-c2ccc(OC)c(OC)c2)on1 (configuration not stated)
AC50 [1]: 23.1 µM [falling, single point]

CN(C)c1nc(OCCOC(=O)c2ccccc2)nc(N(C)C)n1
AC50 [1]: 10 µM [rising, partial curve, poor fit]

O=c1ccc(N=Nc2ccccc2)ccc1O
AC50 [1]: 35.5 µM [rising, single point]

Nc1ccc2oc(CCc3ccccc3)nc2c1
AC50 [1]: 35.5 µM [falling, single point]

COc1ccc(C2SCCN2C(=S)Nc2cccc(C(F)(F)F)c2)cc1 (configuration not stated)
AC50 [1]: 23.1 µM [falling, single point]

COc1ccccc1Nc1nc(N)nc(CSC(=S)N2CCCCC2)n1
AC50 [1]: 15.8 µM [falling, single point]

Cn1cc(Cl)c(C(=O)Nc2nc3ccc(Cl)cc3s2)n1
AC50 [1]: 2.24 µM [falling, full curve]

Cc1ccccc1NC(=O)C(=O)NC(C)CCc1ccccc1 (configuration not stated)
AC50 [1]: 18.4 µM [falling, partial curve]

COc1ccc(S(=O)(=O)Nc2ccc(OCC(=O)O)cc2)c2ccccc12
AC50 [1]: 12.6 µM [rising, single point]

COc1ccc(C2c3sc(=O)[nH]c3SC3C4CCC(C4)C23)cc1 (configuration not stated)
AC50 [1]: 29.1 µM [rising, single point]

O=C1c2ccccc2NC(c2ccc(-c3cccc(F)c3)o2)N1O (configuration not stated)
AC50 [1]: 9.2 µM [falling, partial curve]

CN(C)c1ncc(S(=O)(=O)c2ccccc2)c(N)n1
AC50 [1]: 0.891 µM [falling, full curve]

Cc1cc(C(=O)NNCc2ccccc2)no1
AC50 [1]: 18.4 µM [rising, single point]

CCn1c(=O)c(NC(=O)c2ccccc2)c2n(c1=S)CCCCC2
AC50 [1]: 4.11 µM [falling, partial curve, poor fit]

Cc1cccc(Nc2cnn(C34CC5CC(CC(CC(=O)O)(C5)C3)C4)c(=O)c2Cl)c1
AC50 [1]: 0.461 µM [falling, partial curve, poor fit]

COc1ccc(C(=O)CSc2nccn2C)c(OC)c1
AC50 [1]: 7.94 µM [falling, partial curve]

CC(=O)Nc1ccccc1C(=O)N1CC2(C)CC1CC(C)(C)C2 (configuration not stated)
AC50 [1]: 2.31 µM [rising, partial curve]

C[C@@H]1CN([C@@H](C)CO)C(=O)c2cccc(NC(=O)Nc3ccccc3)c2O[C@H]1CN(C)C(=O)Nc1cccc2ccccc12
AC50 [1]: 29.1 µM [falling, single point]

COc1cccc(C(=O)NC(=S)Nc2ccc3oc(=O)ccc3c2)c1
AC50 [1]: 20.6 µM [falling, single point]

Cc1ccc(Nc2nnc(SCC(=O)NC(Cc3c[nH]c4ccccc34)C(=O)O)s2)cc1 (configuration not stated)
AC50 [1]: 11.2 µM [rising, partial curve]

CCOC(=O)Cc1csc(NC(=O)COc2ccc(C)c(C)c2)n1
AC50 [1]: 20 µM [falling, single point]

CCCN1CCC(N2CCN(c3cccc(C(F)(F)F)c3)CC2)CC1
AC50 [1]: 29.1 µM [falling, single point]

Cc1[nH]n(-c2ccccc2)c(=O)c1/C=N/N1C(=O)c2ccc3c4c(ccc(c24)C1=O)CC3
AC50 [1]: 20.6 µM [rising, partial curve]

O=C(/C=C/c1nc2ccccc2s1)N1CCCCCC1
AC50 [1]: 11.2 µM [falling, single point]

CCC(C)NC(=O)CCNS(=O)(=O)c1ccc(Br)cc1 (configuration not stated)
AC50 [1]: 6.51 µM [rising, single point]

O=C(O)CSc1nnc(-c2cc3ccccc3o2)n1-c1ccccc1
AC50 [1]: 5.17 µM [falling, single point]

O=C(NCc1cc([N+](=O)[O-])ccc1O)c1cc(-c2ccncc2)nc2ccccc12
AC50 [1]: 0.501 µM [falling, full curve, poor fit]

Cc1ccc(N(Cc2cc3ccccc3[nH]c2=O)C(=O)c2cccs2)cc1
AC50 [1]: 18.4 µM [rising, single point]

O=C(Nc1ccc(N2CCOCC2)cc1)c1ccc(Cl)cc1N1CCCC1=O
AC50 [1]: 4.11 µM [falling, partial curve, poor fit]

COc1ccc2oc(=O)c(C(=O)NCc3ccccc3)cc2c1
AC50 [1]: 11.2 µM [rising, partial curve, poor fit]

O=C(c1ccccc1)c1coc2ccc(O)c(Cl)c12
AC50 [1]: 28.2 µM [falling, single point]

Cc1ccccc1Nc1nnc(SCc2cc([N+](=O)[O-])cc3c2OCOC3)s1
AC50 [1]: 2.91 µM [falling, full curve, poor fit]

CC(NC(=O)NNC(N)=S)(C(F)(F)F)C(F)(F)F
AC50 [1]: 22.4 µM [falling, single point] | AC50 [2]: 35.5 µM [falling, single point]

CN(CCC#N)S(=O)(=O)c1ccc2[nH]cc(C(=O)NCCc3ccccc3)c(=O)c2c1
AC50 [1]: 20.6 µM [falling, partial curve, poor fit]

Cc1ccc(/C=N/N=C/c2ccc(C)s2)s1
AC50 [1]: 13 µM [falling, partial curve, poor fit]

CCOC(=O)C1=C(O)/C(=C/c2cc(C)n(-c3ccccc3)c2C)N=C1C
AC50 [1]: 3.16 µM [rising, partial curve, poor fit]

O=S(=O)(CC(CN1CCCCC1)N1CCCCC1)c1ccccc1 (configuration not stated)
AC50 [1]: 7.94 µM [falling, partial curve, poor fit]

Cc1ccc2nc(-c3ccc(O)c(O)c3)cn2c1
AC50 [1]: 11.2 µM [falling, single point]

COc1cccc(C(=O)NCCSc2ccc(C)cc2)c1
AC50 [1]: 6.51 µM [falling, partial curve, poor fit]

CC1CCCN(S(=O)(=O)c2ccc(N(C(=O)c3cnccn3)C(C(=O)NC3CCCCC3)c3cccs3)cc2)C1 (configuration not stated)
AC50 [1]: 0.58 µM [falling, full curve, poor fit]

COc1ccc(NC(=O)N2CCCC(c3nc(-c4ccc(OC)cc4)no3)C2)cc1 (configuration not stated)
AC50 [1]: 3.98 µM [falling, partial curve, poor fit]

CC(=O)c1ccc(NS(=O)(=O)c2ccc(N)cc2)cc1
AC50 [2]: 15.8 µM [falling, single point]

CCc1cc(C(=O)Nc2nc(-c3ccccn3)cs2)sc1C
AC50 [1]: 7.31 µM [rising, single point]

O=C(Oc1ccc2c(-c3ccccc3)cc(=O)oc2c1)c1cccs1
AC50 [1]: 1.03 µM [rising, full curve, poor fit]

CC1(C)CC(=O)C=C(c2cccc3c2Oc2ccccc2S3)C1
AC50 [1]: 6.51 µM [rising, single point]

CC1CCN(c2cc(N)c(Cl)cc2[N+](=O)[O-])CC1
AC50 [1]: 31.6 µM [rising, single point]

COCCNC(=O)c1cnn2c(C(F)(F)F)cc(-c3ccc4c(c3)OCO4)nc12
AC50 [1]: 9.2 µM [rising, partial curve, poor fit]

O=[N+]([O-])c1cccc(C(=NCc2ccccc2)NO)c1
AC50 [1]: 5.62 µM [rising, full curve, poor fit]

COc1ccc2ncc(S(=O)(=O)c3ccccc3)c(N3CCC4(CC3)OCCO4)c2c1
AC50 [1]: 25.9 µM [falling, partial curve, poor fit]

Cc1ccc(C(=O)Nc2ccc(S(=O)(=O)N3CCCC3)cc2)s1
AC50 [1]: 31.6 µM [falling, partial curve, poor fit]

CC(=O)c1cc(C#N)c(NCc2cc(-c3ccccc3)no2)nc1C
AC50 [1]: 35.5 µM [rising, single point]

CCN1C(=O)[C@H]2[C@@H](c3ccc(C)cc3)N3C(=O)N(c4ccc(C(F)(F)F)cc4)C(=O)[C@@]3(Cc3ccccc3)[C@H]2C1=O
AC50 [1]: 2.24 µM [rising, partial curve]

CC1=C/C(=N\N=C2\NC(=O)C(CC(=O)Nc3ccccc3F)S2)CC(C)(C)C1 (configuration not stated)
AC50 [1]: 17.8 µM [falling, single point] | AC50 [2]: 35.5 µM [falling, single point]

Cc1cccc(-n2nnnc2SCc2csc(-c3ccccc3)n2)c1
AC50 [1]: 8.2 µM [rising, partial curve, poor fit]
